## Library screen at single concentrations

Each number is a percent effect as filed.
The controls that fix the scale are not given in the record; negative values are as filed.
Compounds were drawn at random from those tested, without regard to their results.
Two or more numbers in one place are separate tests of the same structure; such repeats can differ widely.
A dash means the value is not listed here; it may have been measured.

T. brucei: 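Whole-parasite assay of Trypanosoma brucei over 72 hours; the read-out is not stated. Compounds at 30 µM. Direction is inferred from retests: higher values go with stronger inhibition. Values scatter widely below zero; nearly all retest evidence comes from the higher of the two concentrations used. About 64,000 compounds were tested under these conditions; 1.5% (about 940) showed 50% or more at least once.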
Leishmania in macrophages: 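Cell assay of Leishmania donovani living inside macrophages; the read-out is not stated. Concentration: 30 µM. The record gives no direction; compounds that gave an IC50 in retests scored well above the rest, so higher reads as stronger inhibition. Of about 69,000 compounds tested this way, about 1,000 (1.5%) reached 50% or more in at least one test.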

SMILES,T. brucei,Leishmania in macrophages
CC(=O)NC1CCCN(C(=O)Nc2cccnc2-n2cccn2)C1 (stereo unspecified),0.8035%,24.04%
CCOc1ncccc1CNC(=O)NCC(O)c1ccccc1OC (stereo unspecified),-,0.1933%
Cc1cnn(Cc2cccc(OCC(N)=O)c2)c1,-45.38%,3.588%
COC(=O)N1CCc2ccccc2C1C(=O)NCc1ccccn1 (stereo unspecified),1.885%,2.885% and 6.571%
O=C1COc2cc(C(=O)N3CCCC(n4ccnc4)C3)ccc2N1 (stereo unspecified),-49.1%,8.144%
Cc1cnn(CCC(=O)Nc2ccc(F)cc2OCC2CC2)c1,-42.68%,-35.43%
CCCn1cc2c(C(F)F)cc(SCC(=O)O)nc2n1,-0.349%,9.015%
Cn1cc(C(=O)NCCC(=O)N2CCCCC2)c(-c2cccnc2)n1,-13.03%,6.783%
CCS(=O)(=O)Cc1nnnn1-c1ccccc1,3.176%,27.87%
CCC1CN(C(=O)c2ncccc2O)CCC(=O)N1Cc1ccccc1 (stereo unspecified),-46.92%,23.45%
CC(C)CCN(C(=O)CCn1cc(S(N)(=O)=O)cn1)C1CC1,-22.75%,-4.095%
Cn1c(-c2ccccc2Cl)nc2cc(C(=O)NCC3(CO)CC3)cnc21,-30.23%,6.788%
Oc1ccc(-c2c(-c3ccccc3)ncn2C[C@H]2CCCN2)cc1,67.04%,51.83%
CC1CN(C)CCN1C(=O)c1cccn1Cc1cccs1 (stereo unspecified),-49.68%,10.7%
COC(=O)CCNC(=O)c1ccc(NC(=O)N(C)CC(C)C)cc1,-36.08%,-15.2%
CNc1ccc(CC2CCCN(C(=O)c3cnccn3)C2)nn1 (stereo unspecified),-37.83%,-2.166% and 6.574%
Cc1cnn(CCC(=O)NC2CCc3nc(C)cn3C2)c1 (stereo unspecified),-21.01%,8.109%
CC(NS(=O)(=O)CCc1ccccn1)c1ccccc1Br (stereo unspecified),-18.22%,15.53%
CN(Cc1cn(-c2ccccc2)nn1)C1CCCN(c2cccnn2)C1 (stereo unspecified),-21.93%,7.085%
CC(C)CS(=O)(=O)CC(=O)NC1CCCCNC1=O (stereo unspecified),-,12.4%
COCC(=O)N1CC2=CC(C)(C)COc3ccc(OC)c(c32)C1,-36.07%,-15.44%
Cn1c(C(=O)NC2CC2)nc2c1CCN(c1ncccn1)C2,-61.01%,11.61%
c1ccc2nc(N3CCCC(Cn4cncn4)C3)cnc2c1 (stereo unspecified),8.206%,25.07%
COc1ccccc1[C@@H]1CN(Cc2cc(C(C)(C)C)[nH]n2)C[C@H]1C(=O)O,47.39%,31.35%
CC(C)[C@H](NC(=O)NC1CCS(=O)(=O)C1)C(=O)Nc1cccnc1 (stereo partly specified),5.875%,-17.92%
O=C(O)C(F)(F)F.[H][C@@]12CCN(S(=O)(=O)C3CC3)[C@@]1([H])CCN2C(=O)c1ccncc1,-106.6%,2.476%
Cc1nc(C)c(CC(=O)NCc2ccccc2F)s1,7.826%,5.82% and 26.13%
CSCc1ccc(C(=O)N2CCN(CC(C)O)CC2)cc1 (stereo unspecified),4.279%,16.23%
CC(C)N(C)Cc1ccccc1CNc1ccc2nncn2n1,-65.5%,-22.06%
Cc1nc(CN2Cc3nccn3CC(CN3CCOCC3)C2)cs1.O=C(O)C(F)(F)F.O=C(O)C(F)(F)F (stereo unspecified),2.038%,32.68%
Cc1cc(=O)n(CC(=O)NCC2CCCO2)c(-c2ccc(F)cc2)n1 (stereo unspecified),-60.62%,7.281%
Cc1nc(CN2CCOCC3(CCCN(c4cnccn4)C3)C2)cs1.O=C(O)C(F)(F)F (stereo unspecified),-10.72%,0.4051%
FC(F)(F)c1ccccc1CCC1CCCN(Cc2cscn2)C1 (stereo unspecified),51.05%,23.79%
CCc1nc2n(n1)CCCC2NC(=O)Nc1ccc(F)cc1C#N (stereo unspecified),5.773%,19.68%
O=C(O)C(F)(F)F.[H][C@@]12CN(C(=O)c3ccc(F)cc3)C[C@]1([H])OCCN2c1ncccn1,34.6%,2.928%
CCS(=O)(=O)N1CCC2(COCc3cnc(N4CCOCC4)nc32)C1 (stereo unspecified),-30.84%,-12.53%
Cc1nn(C)c(C)c1C1COCCN1C(=O)c1cc(F)ccc1F (stereo unspecified),-,19.11%
O=C(O)C(F)(F)F.O=C(O)C(F)(F)F.[H][C@@]12CN(C(=O)c3cccc(C)n3)C[C@]1([H])OCCN2c1ncccn1,8.392%,-19.04%
Cc1nc2sccn2c1CNc1cc(C(=O)O)ccc1F,-29.24%,13.52%
CN(C)CC1CN(Cc2cccc(C#N)c2)Cc2nccn2C1.O=C(O)C(F)(F)F.O=C(O)C(F)(F)F (stereo unspecified),-32.62%,13.47%
CC(=O)N1CCN(C(=O)CCn2c(C)nc3ccccc3c2=O)CC1,10.09%,23.94%
c1cc(-c2cn[nH]c2)ccc1CN1CCCCC1,-60.38%,32.22%
CN(CCCc1cnn(C)c1)Cc1cc2n(n1)CCNC2,-28%,-9.911%
CCCN1CCCN(C(=O)c2ccc(Oc3cccnc3)cc2)CC1,-,-1.538%
CN(C)CCNCC1(O)CCCN(Cc2cccc(F)c2F)C1=O (stereo unspecified),-11.47%,-2.822%
O=C(Nc1ccccc1-c1cccs1)N1CCN(CC(F)F)CC1,-22.32%,10.17%
Cc1nn(-c2ccccc2)nc1C(=O)NCC(c1ccsc1)N(C)C (stereo unspecified),-6.629%,-5.402%
Cc1cc(C)n(CC2CN(Cc3cccnc3)CCO2)n1 (stereo unspecified),-3.083%,-3.695%
COc1cccc(CNC(=O)c2cc(C)nc(N3CCCCC3)n2)c1,-29.27%,-1.583%
Cl.O=c1c2sccc2nc2n1CCN(Cc1ccccc1C(F)(F)F)CC2,7.665%,-12.34%
O=C(O)C(F)(F)F.O=C(O)C(F)(F)F.[H][C@@]12COC[C@]1(COCc1ccncc1)CN(CC1CCC1)C2,51.43%,11.04%
NC(=O)C1CCN(c2nc3nccc(-c4ccncc4)c3c(=O)[nH]2)CC1,-70.1%,-8.179%
CC(C)NC(=O)N1CCN(CC2CC2)CC2(CNC(=O)C2)C1.O=C(O)C(F)(F)F (stereo unspecified),-4.336%,-6.612%
Cc1cccnc1CN1CCC2(CC(Nc3ccncn3)C2)C1 (stereo unspecified),-7.82%,0.4645% and -7.354%
CS(=O)(=O)N1CCCC12CCCN(C(=O)c1cc(F)cc(F)c1)C2 (stereo unspecified),-111.9%,12.14%
N#Cc1ccccc1OCCN1CCC(N2CCNC2=O)CC1,27.81%,33.22%
CNc1cc(N2CCCC2CNCc2cnc(C)cn2)ncn1 (stereo unspecified),-13.24%,41.98%
O=C(Cn1c(=O)oc2ccccc21)NCC(O)c1ccc2c(c1)CCO2 (stereo unspecified),-26.9%,-13%
Nc1nc2c(c(=O)[nH]1)CCN(C(=O)c1ccccc1N1CCCC1)C2,-13.19%,-6.977%
CC(C)Cc1nc(CN(C)CCOc2ccccc2F)no1,-45.74%,14.59%
CN(CCO)C[C@@H]1CN(C2CCN(c3ccccc3Cl)CC2)C[C@@H]1CO,13.3%,89.6%
c1csc(CCNc2nc(-c3ccncc3)nc3c2CCNCC3)c1,104%,9.747%
CCOCCN1CCN(Cc2nc(C3CC3)no2)CC1CC (stereo unspecified),-44.13%,21.05%
CCn1ccnc1C1CCN(Cc2c(F)cccc2F)CC1,86.79%,23.27%
CCn1ccnc1CN1CCN(C(C)C(=O)NCC(F)(F)F)CC1 (stereo unspecified),-18.7%,8.016%
[H][C@@]12CCN(S(C)(=O)=O)[C@]1([H])CC[C@H](c1nc(C)no1)O2,20.86%,29.26%
NCC(c1cccnc1)N1CCOCC1 (stereo unspecified),-25.89%,14.21%
CCN1CCC(NC(=O)N(C)Cc2csc3ccccc23)CC1,-43.4%,82.94%
COc1cc(C2CC(=O)Nc3c2nc2n3CCCC2)ccc1O (stereo unspecified),-25.17%,-3.209%
Cc1ccc2nc(N3CCN(CC(=O)NC(C)C)CC3)cc(C)c2c1,11.73%,27.94%
CCc1c(C)nc2ccccc2c1N1CCC(O)CC1,5.122%,7.31%
Cc1ccc(C(=O)N2CCN(CCCSCC#N)CC2)o1,39.95%,23.51%
Cc1ccc(CN2C(=O)CC[C@]23CC[C@@H](NC2CCOC2)CC3)cc1.O=C(O)C(F)(F)F (stereo partly specified),-11.8%,7.957%
FC(F)c1nnc2ccc(N3CCC4(CCCCC4)C3)nn12,-30.41%,10.92%
Cc1cc(N2CCN(Cc3ccnn3C)CC2)cc(C2CCCN2)n1.Cl (stereo unspecified),-25.56%,-10.33%
CC(C)C(=O)N1CCC(NCc2c(C(C)C)nn(C)c2N(C)C)CC1,-66.03%,12.25%

Some entries from above, unchanged:

| SMILES | T. brucei | Leishmania in macrophages |
|---|---|---|
| `CCS(=O)(=O)N1CCC2(COCc3cnc(N4CCOCC4)nc32)C1` (stereo unspecified) | -30.84% | -12.53% |
| `COc1cccc(CNC(=O)c2cc(C)nc(N3CCCCC3)n2)c1` | -29.27% | -1.583% |
| `CCn1ccnc1CN1CCN(C(C)C(=O)NCC(F)(F)F)CC1` (stereo unspecified) | -18.7% | 8.016% |
| `CC(C)CCN(C(=O)CCn1cc(S(N)(=O)=O)cn1)C1CC1` | -22.75% | -4.095% |
| `CC(C)NC(=O)N1CCN(CC2CC2)CC2(CNC(=O)C2)C1.O=C(O)C(F)(F)F` (stereo unspecified) | -4.336% | -6.612% |
| `Nc1nc2c(c(=O)[nH]1)CCN(C(=O)c1ccccc1N1CCCC1)C2` | -13.19% | -6.977% |
| `Cc1nc2sccn2c1CNc1cc(C(=O)O)ccc1F` | -29.24% | 13.52% |

From ChEMBL document CHEMBL3988442, “University of Dundee, Small-Polar-MMV Screening Library” (2021).